Measurements as given in patent US10087404B2, “Biological corrosion inhibitor for metals” (KURARAY CO., LTD., priority 2014, dated 2018).

System: activated sludge
Assay: Biodegradability test (OECD test guideline 301C, JIS K 6950) with activated sludge
Settings: high concentration group (100 ppm)

Nc1ccccc1 [aniline]
biodegradation rate in 28 days (25° C., activated sludge 30 ppm): ≥ 60% | degradability determination (28 days): highly degradable (When the biodegradation rate was 60% or more, the substance was determined as a highly degradable substance)
